Measurements: the supplement of paper PMC10849652
The list shows a part of the results.

Amino acid sequences for entries named in this document (tags omitted). A change or cut given only in a name is not applied to a line headed by its entry.
UniProt Q8TDL5: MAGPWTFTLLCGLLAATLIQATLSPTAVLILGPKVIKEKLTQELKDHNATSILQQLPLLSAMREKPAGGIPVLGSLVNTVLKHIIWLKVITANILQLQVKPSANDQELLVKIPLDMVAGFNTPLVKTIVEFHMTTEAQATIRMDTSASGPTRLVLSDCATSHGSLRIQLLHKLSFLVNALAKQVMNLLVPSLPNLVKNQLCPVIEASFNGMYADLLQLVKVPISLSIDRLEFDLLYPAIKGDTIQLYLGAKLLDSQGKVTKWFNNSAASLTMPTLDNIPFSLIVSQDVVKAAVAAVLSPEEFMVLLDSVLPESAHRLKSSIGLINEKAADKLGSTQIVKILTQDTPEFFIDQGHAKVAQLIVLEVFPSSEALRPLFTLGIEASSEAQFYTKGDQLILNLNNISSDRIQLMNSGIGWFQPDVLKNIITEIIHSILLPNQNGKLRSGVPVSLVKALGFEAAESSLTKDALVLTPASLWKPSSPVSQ
UniProt Q8WXE1: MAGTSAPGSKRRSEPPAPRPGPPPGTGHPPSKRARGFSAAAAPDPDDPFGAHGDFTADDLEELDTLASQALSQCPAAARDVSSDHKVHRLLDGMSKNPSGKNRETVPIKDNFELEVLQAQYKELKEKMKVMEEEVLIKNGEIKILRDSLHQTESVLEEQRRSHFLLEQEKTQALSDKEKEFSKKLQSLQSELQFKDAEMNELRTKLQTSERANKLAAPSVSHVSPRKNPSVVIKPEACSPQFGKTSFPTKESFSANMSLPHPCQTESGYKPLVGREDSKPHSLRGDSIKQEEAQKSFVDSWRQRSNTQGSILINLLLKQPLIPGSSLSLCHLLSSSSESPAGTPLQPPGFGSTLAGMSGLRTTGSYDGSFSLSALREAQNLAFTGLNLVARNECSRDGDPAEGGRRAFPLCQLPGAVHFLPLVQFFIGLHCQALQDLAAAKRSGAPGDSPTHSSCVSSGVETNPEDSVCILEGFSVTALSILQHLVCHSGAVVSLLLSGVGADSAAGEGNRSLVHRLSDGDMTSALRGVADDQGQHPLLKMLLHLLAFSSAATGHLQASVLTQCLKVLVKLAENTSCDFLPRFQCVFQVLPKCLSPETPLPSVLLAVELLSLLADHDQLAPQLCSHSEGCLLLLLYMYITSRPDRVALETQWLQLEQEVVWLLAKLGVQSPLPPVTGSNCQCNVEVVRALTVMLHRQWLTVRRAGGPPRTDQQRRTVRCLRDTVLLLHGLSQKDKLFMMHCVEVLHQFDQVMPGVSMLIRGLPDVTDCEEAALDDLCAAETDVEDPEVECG
UniProt Q8TD16, whole entry, looked up: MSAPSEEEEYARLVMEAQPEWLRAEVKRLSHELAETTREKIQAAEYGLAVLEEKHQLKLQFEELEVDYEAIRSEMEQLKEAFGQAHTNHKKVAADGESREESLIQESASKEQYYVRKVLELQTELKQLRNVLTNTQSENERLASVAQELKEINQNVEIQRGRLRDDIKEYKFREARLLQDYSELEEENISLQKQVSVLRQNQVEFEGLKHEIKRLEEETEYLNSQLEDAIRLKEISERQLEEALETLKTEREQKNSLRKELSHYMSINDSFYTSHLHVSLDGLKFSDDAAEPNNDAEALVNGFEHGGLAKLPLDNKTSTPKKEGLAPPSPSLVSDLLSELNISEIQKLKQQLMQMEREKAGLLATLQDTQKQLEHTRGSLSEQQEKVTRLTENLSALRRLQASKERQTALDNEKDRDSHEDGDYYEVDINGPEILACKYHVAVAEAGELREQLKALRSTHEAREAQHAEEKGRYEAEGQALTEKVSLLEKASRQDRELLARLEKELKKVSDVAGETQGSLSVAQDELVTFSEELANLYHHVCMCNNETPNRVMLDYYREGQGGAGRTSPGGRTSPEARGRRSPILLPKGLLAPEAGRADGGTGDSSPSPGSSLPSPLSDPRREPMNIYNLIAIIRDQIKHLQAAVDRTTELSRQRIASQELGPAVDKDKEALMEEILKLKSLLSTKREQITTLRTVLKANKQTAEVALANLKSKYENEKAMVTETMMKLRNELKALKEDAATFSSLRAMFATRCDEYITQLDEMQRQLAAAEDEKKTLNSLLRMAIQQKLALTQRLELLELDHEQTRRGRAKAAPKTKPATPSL
UniProt Q9NWV8, whole entry, looked up: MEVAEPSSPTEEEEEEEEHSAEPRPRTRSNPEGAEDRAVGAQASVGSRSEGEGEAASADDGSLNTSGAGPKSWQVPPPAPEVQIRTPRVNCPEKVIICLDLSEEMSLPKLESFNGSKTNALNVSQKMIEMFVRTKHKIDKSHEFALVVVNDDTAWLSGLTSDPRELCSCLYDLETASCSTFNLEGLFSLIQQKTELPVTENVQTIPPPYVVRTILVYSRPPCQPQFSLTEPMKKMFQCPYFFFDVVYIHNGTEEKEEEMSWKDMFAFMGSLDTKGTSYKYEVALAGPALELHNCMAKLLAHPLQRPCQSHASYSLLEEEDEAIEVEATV
UniProt P12694: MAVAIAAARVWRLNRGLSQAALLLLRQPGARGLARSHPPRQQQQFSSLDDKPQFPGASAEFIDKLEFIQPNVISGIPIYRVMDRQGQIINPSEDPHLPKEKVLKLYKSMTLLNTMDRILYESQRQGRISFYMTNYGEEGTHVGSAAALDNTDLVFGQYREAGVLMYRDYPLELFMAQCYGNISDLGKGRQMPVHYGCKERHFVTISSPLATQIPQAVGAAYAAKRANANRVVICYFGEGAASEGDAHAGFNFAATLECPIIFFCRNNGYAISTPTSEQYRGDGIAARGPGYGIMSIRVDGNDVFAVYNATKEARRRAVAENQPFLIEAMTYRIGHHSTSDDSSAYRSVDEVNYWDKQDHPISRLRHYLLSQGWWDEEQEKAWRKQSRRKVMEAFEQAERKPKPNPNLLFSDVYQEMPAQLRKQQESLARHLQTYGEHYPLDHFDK
UniProt Q13490, whole entry, looked up: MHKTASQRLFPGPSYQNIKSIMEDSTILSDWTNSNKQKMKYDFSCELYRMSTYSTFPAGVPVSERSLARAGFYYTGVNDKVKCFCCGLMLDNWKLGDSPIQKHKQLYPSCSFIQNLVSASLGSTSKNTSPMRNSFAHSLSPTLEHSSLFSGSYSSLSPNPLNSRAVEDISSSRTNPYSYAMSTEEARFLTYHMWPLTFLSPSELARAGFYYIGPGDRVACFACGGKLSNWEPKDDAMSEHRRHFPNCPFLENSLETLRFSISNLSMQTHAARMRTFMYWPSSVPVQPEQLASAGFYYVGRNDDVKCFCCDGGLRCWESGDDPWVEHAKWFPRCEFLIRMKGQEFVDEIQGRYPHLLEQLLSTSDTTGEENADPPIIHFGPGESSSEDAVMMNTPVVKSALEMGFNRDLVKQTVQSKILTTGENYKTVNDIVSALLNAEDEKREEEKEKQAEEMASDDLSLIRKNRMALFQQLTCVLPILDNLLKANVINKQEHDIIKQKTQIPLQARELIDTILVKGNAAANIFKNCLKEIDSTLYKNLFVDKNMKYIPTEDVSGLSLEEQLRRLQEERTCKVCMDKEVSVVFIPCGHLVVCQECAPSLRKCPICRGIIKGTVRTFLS
UniProt O60909: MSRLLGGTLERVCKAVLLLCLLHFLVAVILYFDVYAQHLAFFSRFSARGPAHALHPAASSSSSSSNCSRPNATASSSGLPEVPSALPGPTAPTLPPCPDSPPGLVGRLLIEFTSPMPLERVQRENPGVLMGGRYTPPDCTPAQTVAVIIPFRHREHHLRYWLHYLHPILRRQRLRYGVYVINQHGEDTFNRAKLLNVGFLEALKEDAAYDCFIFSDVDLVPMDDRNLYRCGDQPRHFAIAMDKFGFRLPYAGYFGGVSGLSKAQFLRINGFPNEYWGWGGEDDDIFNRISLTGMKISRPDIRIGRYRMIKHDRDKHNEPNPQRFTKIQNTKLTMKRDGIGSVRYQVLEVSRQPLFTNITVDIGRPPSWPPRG
UniProt O15155: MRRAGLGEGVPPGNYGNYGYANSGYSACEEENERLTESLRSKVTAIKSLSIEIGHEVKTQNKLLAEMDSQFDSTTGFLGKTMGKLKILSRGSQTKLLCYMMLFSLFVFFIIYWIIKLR
UniProt Q8TDH9: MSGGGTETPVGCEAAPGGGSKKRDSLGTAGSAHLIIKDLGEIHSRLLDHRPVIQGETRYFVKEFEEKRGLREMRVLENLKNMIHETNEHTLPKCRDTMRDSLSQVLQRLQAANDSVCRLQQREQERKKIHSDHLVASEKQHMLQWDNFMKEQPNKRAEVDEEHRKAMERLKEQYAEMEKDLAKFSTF
UniProt Q7Z7M8: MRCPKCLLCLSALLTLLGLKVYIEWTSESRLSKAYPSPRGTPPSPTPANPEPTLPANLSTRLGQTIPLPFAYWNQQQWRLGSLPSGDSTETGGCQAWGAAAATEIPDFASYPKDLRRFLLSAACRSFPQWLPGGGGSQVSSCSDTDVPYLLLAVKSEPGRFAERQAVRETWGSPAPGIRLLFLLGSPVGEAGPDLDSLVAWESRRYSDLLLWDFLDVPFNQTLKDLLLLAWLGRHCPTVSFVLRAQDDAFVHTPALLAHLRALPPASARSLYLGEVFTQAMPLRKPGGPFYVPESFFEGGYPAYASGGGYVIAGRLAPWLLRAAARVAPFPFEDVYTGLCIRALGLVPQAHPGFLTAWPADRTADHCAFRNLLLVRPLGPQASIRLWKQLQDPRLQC
UniProt P46736, whole entry, looked up: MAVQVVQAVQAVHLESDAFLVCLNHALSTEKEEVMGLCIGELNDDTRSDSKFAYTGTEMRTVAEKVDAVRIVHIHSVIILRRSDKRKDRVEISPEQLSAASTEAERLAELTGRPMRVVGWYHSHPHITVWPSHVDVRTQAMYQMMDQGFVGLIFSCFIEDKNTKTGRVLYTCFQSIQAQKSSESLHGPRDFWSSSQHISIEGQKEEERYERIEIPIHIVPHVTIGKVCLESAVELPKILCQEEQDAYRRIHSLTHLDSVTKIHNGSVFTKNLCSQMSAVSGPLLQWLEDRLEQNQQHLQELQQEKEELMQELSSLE
UniProt Q13867: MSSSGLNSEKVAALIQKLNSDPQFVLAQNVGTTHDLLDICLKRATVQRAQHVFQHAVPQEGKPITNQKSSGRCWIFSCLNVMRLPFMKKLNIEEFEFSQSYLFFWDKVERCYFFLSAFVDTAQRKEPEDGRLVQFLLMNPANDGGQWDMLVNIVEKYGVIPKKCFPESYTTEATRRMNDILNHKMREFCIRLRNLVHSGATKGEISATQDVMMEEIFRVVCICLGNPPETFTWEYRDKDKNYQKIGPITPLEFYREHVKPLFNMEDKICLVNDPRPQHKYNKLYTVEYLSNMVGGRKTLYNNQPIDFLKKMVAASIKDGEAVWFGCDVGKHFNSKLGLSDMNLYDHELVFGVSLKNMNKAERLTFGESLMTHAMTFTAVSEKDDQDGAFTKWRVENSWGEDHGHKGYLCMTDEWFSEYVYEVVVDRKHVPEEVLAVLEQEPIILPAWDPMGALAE
UniProt Q9BXK5, whole entry, looked up: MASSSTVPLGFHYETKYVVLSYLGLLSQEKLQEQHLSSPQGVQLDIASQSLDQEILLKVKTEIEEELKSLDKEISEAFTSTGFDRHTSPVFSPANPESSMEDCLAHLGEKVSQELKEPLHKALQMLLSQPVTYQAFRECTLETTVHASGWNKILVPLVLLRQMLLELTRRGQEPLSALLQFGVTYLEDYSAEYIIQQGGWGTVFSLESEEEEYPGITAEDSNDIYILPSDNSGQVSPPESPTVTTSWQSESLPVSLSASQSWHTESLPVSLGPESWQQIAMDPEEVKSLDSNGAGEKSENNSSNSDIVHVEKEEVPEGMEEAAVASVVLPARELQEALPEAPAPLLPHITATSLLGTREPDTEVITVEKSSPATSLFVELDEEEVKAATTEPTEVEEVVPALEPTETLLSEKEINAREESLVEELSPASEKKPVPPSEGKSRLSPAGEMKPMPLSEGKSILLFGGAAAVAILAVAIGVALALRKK
UniProt O14867: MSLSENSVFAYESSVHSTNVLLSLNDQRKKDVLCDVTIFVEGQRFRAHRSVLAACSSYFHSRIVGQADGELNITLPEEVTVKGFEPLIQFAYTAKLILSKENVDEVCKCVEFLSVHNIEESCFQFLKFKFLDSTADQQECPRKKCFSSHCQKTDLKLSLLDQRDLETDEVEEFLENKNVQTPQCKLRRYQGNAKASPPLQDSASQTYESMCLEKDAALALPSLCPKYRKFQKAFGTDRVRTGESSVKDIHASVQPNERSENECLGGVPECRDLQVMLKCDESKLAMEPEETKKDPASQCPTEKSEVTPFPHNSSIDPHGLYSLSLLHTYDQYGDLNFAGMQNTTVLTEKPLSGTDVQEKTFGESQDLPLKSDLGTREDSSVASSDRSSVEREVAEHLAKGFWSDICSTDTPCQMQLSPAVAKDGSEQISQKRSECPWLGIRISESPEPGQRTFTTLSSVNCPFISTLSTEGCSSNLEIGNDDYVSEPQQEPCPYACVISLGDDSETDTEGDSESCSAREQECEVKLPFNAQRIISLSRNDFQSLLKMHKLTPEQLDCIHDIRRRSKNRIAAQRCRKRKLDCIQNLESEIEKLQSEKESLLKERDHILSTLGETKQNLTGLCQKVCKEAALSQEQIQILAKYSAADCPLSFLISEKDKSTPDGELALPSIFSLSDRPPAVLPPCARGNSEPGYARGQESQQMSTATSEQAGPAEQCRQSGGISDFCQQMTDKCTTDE

These targets were tested with CS(=O)(=O)c1ccc(-c2cnc(N)c(C(=O)Nc3ccccc3)n2)cc1 (assay: log2 fold change, soluble protein after heating vs DMSO (PISA); higher = thermal stabilisation; K562 cells, 10 uM, 30 min; active = over 0.2 and 3.5 SD of the protein, either way, in both replicates (recomputed)).
Procedure, shortened: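 Thermal stability values are relative to control samples and come from duplicates. They are expressed as log2 fold changes. For measurement, K562 cells (2×10^6 cells/mL) received 10 μM compound for 30 min, and aliquots were heated for 3 min over 48°C-58°C, pooled, and extracted at 4°C in PBS with 0.5% NP-40. Soluble protein, the supernatant after 21,000xg for 90 min, was quantified by TMTpro 16plex LC-MS/MS with equalised channel sums.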
In the case of BRAT1 (UniProt Q6PJG6), the log2 fold change is reported as inactive: 0.043. For BLOC1S4 (UniProt Q9NUP1), the log2 fold change was inactive: -0.018. In the case of ATXN2 (UniProt Q99700), the log2 fold change is reported as inactive: 0.008. In the case of BCL2L1 (UniProt Q07817), the log2 fold change is reported as inactive: -0.027. With BPIFB1 (UniProt Q8TDL5) the log2 fold change was inactive: -0.045. In the case of ATRIP (UniProt Q8WXE1), the log2 fold change is reported as inactive: 0.018. In the case of B4GALT3 (UniProt O60512), the log2 fold change is reported as inactive: 0.031. For BLVRA (UniProt P53004), the log2 fold change was inactive: 0.038. BICD2 isoform 2 (UniProt Q8TD16) was tested, and the log2 fold change was inactive: 0.117. With BABAM1 (UniProt Q9NWV8) the log2 fold change was inactive: 0.044. With BAX isoform 2 (UniProt Q07812) the log2 fold change was inactive: -0.018. With BCKDHA (UniProt P12694) the log2 fold change was inactive: 0.039. For BNIP2 (UniProt J3KN59), the log2 fold change was inactive: -0.052. With BOLA2 (UniProt Q9H3K6) the log2 fold change was inactive: -0.011. BIRC2 (UniProt Q13490) was tested, and the log2 fold change was inactive: 0.037. With BAG3 (UniProt O95817) the log2 fold change was inactive: 0.033. In the case of B4GALT2 isoform 3 (UniProt O60909), the log2 fold change is reported as inactive: -0.024. With BAHCC1 (UniProt Q9P281) the log2 fold change was inactive: 0.203. For BMS1 (UniProt Q14692), the log2 fold change was inactive: -0.06. BCKDK (UniProt O14874) was tested, and the log2 fold change was inactive: -0.011. BET1 (UniProt O15155) was tested, and the log2 fold change was inactive: 0.043. For BPNT1 (UniProt O95861), the log2 fold change was inactive: 0.062. For BLOC1S5 (UniProt Q8TDH9), the log2 fold change was inactive: -0.005. In the case of B3GAT3 (UniProt O94766), the log2 fold change is reported as inactive: 0.052. In the case of B3GNT8 (UniProt Q7Z7M8), the log2 fold change is reported as inactive: -0.139. For BIRC6 (UniProt Q9NR09), the log2 fold change was inactive: 0.035. In the case of BCS1L (UniProt Q9Y276), the log2 fold change is reported as inactive: 0.042. With BRCC3 (UniProt P46736) the log2 fold change was inactive: -0.026. BCL2L2 isoform 2 (UniProt Q92843) was tested, and the log2 fold change was inactive: -0.065. BLMH (UniProt Q13867) was tested, and the log2 fold change was inactive: -0.042. BOLA3 (UniProt Q53S33) was tested, and the log2 fold change was inactive: 0.059. In the case of BCL2L13 (UniProt Q9BXK5), the log2 fold change is reported as inactive: 0.026. BACH1 (UniProt O14867) was tested, and the log2 fold change was inactive: -0.027. For BLOC1S1 (UniProt P78537), the log2 fold change was inactive: -0.104. BCAS2 (UniProt O75934) was tested, and the log2 fold change was inactive: 0.001. For AZGP1 (UniProt P25311), the log2 fold change was inactive: -0.014. BAK1 (UniProt Q16611) was tested, and the log2 fold change was inactive: -0.035. With BROX (UniProt Q5VW32) the log2 fold change was inactive: -0.005. In the case of BORCS6 (UniProt Q96GS4), the log2 fold change is reported as inactive: -0.009. For BAG6 isoform 3 (UniProt P46379), the log2 fold change was inactive: 0.016.
